The assay concerns the target C-terminal region of TipC (amino acids 2725-3848) fused to GFP (D. discoideum) (UniProt Q55FG3). In words: co-IP; GFP-Trap A beads on lysates of D. discoideum tipC- cells overexpressing HA-Rab7A with TipC^2725-3848-GFP or GFP alone; western blot with anti-HA and anti-GFP; 10 mM Tris-HCl pH 7.5, 150 mM NaCl, 4 h at 4°C. In general terms: A western blot detects proteins with antibodies after separation by electrophoresis.

Amino acid sequences for entries named in this document (tags omitted). Residues count along the entry.
UniProt Q55FG3, residues 2725-3848: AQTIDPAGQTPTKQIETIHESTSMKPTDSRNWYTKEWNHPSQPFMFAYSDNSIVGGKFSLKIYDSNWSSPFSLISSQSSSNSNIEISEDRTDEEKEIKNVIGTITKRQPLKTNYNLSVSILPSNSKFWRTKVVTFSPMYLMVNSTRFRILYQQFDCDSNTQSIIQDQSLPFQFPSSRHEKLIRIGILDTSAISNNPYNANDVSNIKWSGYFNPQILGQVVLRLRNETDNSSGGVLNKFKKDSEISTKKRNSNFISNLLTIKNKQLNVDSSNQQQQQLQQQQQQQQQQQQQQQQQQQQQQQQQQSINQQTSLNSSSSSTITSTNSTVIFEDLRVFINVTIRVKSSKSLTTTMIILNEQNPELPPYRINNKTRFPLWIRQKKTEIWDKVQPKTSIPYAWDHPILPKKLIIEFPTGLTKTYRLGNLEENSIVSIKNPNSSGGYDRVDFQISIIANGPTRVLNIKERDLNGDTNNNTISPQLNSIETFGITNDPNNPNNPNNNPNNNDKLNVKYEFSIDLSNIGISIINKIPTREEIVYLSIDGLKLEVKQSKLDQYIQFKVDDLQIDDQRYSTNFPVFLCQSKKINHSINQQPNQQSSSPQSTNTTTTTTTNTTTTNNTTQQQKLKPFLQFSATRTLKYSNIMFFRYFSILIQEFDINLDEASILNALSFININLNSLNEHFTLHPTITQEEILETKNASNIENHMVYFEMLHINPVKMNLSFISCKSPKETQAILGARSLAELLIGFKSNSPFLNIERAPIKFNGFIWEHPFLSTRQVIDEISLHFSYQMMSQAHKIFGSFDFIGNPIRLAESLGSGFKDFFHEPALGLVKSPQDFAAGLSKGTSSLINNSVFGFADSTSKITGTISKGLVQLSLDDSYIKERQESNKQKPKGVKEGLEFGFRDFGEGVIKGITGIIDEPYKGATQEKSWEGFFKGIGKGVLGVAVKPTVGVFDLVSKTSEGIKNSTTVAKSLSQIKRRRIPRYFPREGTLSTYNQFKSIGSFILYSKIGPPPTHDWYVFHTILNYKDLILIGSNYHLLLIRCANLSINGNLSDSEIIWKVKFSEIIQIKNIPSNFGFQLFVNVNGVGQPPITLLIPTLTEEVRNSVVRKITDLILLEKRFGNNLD
UniProt P36411: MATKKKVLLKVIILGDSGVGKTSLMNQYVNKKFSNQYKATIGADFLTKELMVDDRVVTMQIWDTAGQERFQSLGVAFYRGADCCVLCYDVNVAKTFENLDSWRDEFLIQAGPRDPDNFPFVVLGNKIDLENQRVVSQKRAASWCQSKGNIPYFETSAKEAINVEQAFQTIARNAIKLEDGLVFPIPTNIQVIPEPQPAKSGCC

These are yes or no findings as the source states them, for the method shown. In cells and extracts the contact can be indirect. Some binding calls cover weakened binding; strength is not graded here.

In the case of “hemagglutinin (HA)-tagged Rab7A (from UniProt P36411 1-203)”, the binding result was “binds”.

These data come from publication PMC6398486.
